# Tested on: lung tumors in KPluc mice
# Assay: Me4FDG and FDG PET/CT imaging of lung nodules in KPluc mice
# Format: in vivo, mouse
# Conditions: for contrast-to-noise ratio (CNR): PET
smiles,measurement,setting,value
"CO[C@H]1O[C@H](CO)[C@@H]([18F])[C@H](O)[C@H]1O [Me4FDG, methyl 4-deoxy-4-[18F] fluoro-alpha-D-glucopyranoside]",diameter of the smallest lesion with a CNR≥4,"lesion t2, KPluc mouse",1.0 mm
same,volume of the smallest lesion with a CNR≥4,"lesion t2, KPluc mouse",0.52 mm3
same,contrast-to-noise ratio (CNR),"tumor t2 (printed 12), KPluc mouse",4.47
same,contrast-to-noise ratio (CNR),"tumor t3, KPluc mouse",7.83

# Reference: patent US20240197928A1, “SODIUM-DEPENDENT GLUCOSE TRANSPORTER 2 AS A DIAGNOSTIC AND THERAPEUTIC TARGET FOR PRE-MALIGNANT LESIONS” (THE REGENTS OF THE UNIVERSITY OF CALIFORNIA, priority 2019, published 2024)
